Assay results taken from US7811989 (dated 2010).

Experiment: general procedure: Fmoc solid-phase peptide synthesis; Rink Amide MBHA; HBTU/HOBT/DIEA in NMP
Conditions: whole synthesis, analytical HPLC, scale 0.25 mmol

In the case of [A5C^31]hPYY(3-36)NH2, the “final HPLC purity” value is reported as “approximately 97.6%”.

Experiment: general procedure: Fmoc solid-phase peptide synthesis; Rink Amide MBHA resin (0.72 mmol/g) for peptide amides; Wang resin (0.5 mmol/g) for peptide acids; HBTU/HOBT/DIEA in NMP
Conditions: whole synthesis, analytical HPLC, scale of the general procedure 0.25 mmol

First: Ac-(2Pal^26, Leu^31)hPPY(24-36)NH2
Second: Ac-(3Pal^26, Leu^31)hPPY(24-36)NH2
The “final HPLC purity” value of the first is lower: 94.8% for the first, 97.2% for the second.

First: Ac-(4Pal^26, Leu^31)hPPY(24-36)NH2
Second: Ac-(Taz^26, Leu^31)hPPY(24-36)NH2
The “final HPLC purity” value of the first is lower: 97.0% for the first, 97.9% for the second.

Compared with Ac-[2Pal^26]hPYY(22-36)NH2, Ac-[3Pal^26]hPYY(22-36)NH2 is lower in “final HPLC purity” value: 99.6% for the first, 99.0% for the second.

Ac-[4Pal^26]hPYY(22-36)NH2 and Ac-[A5C^22]hPYY(22-36)NH2 are the same in “final HPLC purity” value: 99.9% for the first, 99.9% for the second.

Going from Ac-[A5c^31]hPYY(22-36)NH2 to Ac-[A6C^24, Leu^31]hPYY(24-36)NH2, the “final HPLC purity” value falls from 99.9% to 98.8%.

Going from Ac-[A6C^24]hPYY(22-36)NH2 to Ac-[A6C^28, Leu^31]hPYY(24-36)NH2, the “final HPLC purity” value falls from 99.9% to 97.5%.

First: Ac-[A6C^31]hPYY(24-36)NH2
Second: Ac-[A6c^28]hPYY(22-36)NH2
The “final HPLC purity” value of the first is lower: 96.3% for the first, 99.9% for the second.

First: Ac-[A6c^30]hPYY(22-36)NH2
Second: Ac-[A6c^31]hPYY(22-36)NH2
The “final HPLC purity” value of the first is lower: 99.0% for the first, 99.9% for the second.

Going from Ac-[D2Pal^26]hPYY(22-36)NH2 to Ac-[Taz^26]hPYY(22-36)NH2, the “final HPLC purity” value rises from 96.0% to 97.9%.

Compared with [3Pal^26]hPYY(3-36)NH2, [A6C^24]hPYY(3-36)NH2 is lower in “final HPLC purity” value: 99.9% for the first, 96.5% for the second.

Compared with [A6C^28]hPYY(3-36)NH2, [A6C^30]hPYY(3-36)NH2 is higher in “final HPLC purity” value: 96.8% for the first, 99.9% for the second.

First: [Aib^22]hPYY(3-36)NH2
Second: [Apc^35]hPYY(3-36)NH2
The “final HPLC purity” value of the first is higher: 97.7% for the first, 94.1% for the second.

In the case of [Taz^26]hPYY(3-36)NH2, the “final HPLC purity” value is reported as 95.6%.
